We go through four substances from paper PMC11998537.

By UniProt entry, the sequences of proteins in these tests, tags left out.
UniProt P03431: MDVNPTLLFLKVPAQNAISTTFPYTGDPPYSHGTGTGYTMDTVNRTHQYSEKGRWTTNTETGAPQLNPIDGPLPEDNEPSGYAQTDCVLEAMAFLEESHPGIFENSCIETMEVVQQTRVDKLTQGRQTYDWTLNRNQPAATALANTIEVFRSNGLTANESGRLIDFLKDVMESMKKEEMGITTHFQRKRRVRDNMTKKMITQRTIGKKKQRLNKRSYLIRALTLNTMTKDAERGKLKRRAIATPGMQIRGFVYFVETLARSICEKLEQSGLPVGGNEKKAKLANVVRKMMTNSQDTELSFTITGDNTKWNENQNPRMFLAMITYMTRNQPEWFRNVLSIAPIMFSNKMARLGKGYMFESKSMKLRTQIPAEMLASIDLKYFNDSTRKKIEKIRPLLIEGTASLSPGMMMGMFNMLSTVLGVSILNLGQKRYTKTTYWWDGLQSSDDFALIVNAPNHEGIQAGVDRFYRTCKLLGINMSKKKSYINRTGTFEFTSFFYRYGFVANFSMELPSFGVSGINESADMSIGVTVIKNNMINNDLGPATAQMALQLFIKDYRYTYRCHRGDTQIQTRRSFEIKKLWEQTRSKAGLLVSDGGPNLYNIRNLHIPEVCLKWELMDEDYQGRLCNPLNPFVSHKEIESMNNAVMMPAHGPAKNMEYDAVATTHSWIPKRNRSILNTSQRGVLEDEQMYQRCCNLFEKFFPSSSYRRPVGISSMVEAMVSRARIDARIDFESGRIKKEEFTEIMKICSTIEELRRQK
UniProt Q13620: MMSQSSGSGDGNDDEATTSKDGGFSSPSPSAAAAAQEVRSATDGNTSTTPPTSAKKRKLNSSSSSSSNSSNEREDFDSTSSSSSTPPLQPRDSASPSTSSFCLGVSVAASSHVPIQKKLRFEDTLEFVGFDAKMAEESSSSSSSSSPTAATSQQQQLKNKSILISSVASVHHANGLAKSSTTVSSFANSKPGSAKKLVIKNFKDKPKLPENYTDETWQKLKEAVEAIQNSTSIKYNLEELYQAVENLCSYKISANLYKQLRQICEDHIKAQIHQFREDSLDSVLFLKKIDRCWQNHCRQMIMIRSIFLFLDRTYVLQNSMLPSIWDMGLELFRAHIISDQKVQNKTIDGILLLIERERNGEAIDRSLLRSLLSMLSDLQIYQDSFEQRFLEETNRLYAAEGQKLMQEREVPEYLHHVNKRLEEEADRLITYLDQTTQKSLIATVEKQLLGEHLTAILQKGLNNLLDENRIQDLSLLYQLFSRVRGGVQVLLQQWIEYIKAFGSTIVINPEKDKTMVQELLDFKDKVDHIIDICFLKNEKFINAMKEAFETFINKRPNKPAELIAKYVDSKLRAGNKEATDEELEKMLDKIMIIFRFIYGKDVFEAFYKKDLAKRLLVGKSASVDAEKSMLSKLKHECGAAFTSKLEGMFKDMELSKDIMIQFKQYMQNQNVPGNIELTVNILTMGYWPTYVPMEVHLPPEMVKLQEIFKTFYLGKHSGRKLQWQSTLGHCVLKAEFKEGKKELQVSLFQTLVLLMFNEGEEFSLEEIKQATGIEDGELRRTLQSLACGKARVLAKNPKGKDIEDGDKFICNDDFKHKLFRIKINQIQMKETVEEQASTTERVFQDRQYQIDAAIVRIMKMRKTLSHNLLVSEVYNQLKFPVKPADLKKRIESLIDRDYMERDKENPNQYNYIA
UniProt Q13619: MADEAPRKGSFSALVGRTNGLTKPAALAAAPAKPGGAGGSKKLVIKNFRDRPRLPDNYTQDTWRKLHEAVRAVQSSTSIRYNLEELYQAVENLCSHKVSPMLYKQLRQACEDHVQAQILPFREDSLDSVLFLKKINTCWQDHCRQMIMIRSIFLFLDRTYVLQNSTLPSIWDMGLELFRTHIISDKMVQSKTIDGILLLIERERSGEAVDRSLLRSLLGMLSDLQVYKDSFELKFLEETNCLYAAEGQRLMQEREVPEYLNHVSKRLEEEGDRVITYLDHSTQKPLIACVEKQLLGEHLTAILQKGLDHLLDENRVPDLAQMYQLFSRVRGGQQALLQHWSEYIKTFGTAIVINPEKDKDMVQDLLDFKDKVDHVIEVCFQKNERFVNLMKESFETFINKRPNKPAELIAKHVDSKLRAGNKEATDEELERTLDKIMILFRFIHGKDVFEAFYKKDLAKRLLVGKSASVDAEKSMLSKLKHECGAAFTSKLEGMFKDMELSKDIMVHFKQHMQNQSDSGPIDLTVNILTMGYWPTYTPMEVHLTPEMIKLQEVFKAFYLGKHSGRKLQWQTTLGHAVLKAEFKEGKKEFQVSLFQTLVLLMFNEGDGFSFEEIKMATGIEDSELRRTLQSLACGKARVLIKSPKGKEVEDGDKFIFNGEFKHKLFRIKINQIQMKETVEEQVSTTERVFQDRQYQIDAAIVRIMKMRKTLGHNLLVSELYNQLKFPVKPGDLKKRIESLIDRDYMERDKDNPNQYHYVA
UniProt Q16531: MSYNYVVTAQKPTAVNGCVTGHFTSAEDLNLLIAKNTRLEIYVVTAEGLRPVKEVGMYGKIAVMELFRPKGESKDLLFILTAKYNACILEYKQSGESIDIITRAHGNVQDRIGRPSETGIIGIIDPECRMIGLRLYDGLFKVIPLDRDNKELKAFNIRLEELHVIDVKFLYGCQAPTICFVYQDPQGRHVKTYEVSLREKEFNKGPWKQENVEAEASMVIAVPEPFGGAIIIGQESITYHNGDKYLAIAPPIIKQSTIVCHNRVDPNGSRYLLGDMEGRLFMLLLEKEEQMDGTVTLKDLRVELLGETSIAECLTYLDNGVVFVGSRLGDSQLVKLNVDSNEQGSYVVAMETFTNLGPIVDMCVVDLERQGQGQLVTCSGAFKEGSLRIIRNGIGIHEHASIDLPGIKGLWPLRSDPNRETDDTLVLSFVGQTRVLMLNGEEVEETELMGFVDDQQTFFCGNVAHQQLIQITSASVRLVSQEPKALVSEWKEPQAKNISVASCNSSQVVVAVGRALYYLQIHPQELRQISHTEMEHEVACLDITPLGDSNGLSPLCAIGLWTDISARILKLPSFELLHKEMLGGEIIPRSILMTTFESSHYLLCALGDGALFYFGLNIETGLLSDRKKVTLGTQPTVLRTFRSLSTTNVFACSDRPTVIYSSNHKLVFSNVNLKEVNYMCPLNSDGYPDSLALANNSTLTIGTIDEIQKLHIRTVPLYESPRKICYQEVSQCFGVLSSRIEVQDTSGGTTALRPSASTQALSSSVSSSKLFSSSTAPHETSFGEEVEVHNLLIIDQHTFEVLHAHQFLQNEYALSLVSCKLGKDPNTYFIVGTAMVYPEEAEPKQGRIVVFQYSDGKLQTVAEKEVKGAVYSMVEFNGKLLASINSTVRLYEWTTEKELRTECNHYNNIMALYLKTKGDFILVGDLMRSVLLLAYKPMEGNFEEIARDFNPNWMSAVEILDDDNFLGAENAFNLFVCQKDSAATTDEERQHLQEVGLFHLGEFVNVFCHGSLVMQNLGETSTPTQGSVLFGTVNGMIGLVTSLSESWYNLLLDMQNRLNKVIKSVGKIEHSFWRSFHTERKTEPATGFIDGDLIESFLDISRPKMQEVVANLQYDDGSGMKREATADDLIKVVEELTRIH

Results are given in words; binding and its absence hold for the method and conditions named. Binding seen in cells or lysates may run through a third protein. Some binding calls cover weakened binding; strength is not graded here. For some of these results: Tags and fused reporters may be left off the sequences shown.

For assay [1], the target named is T1, Flag-tagged DCAF7, stably expressed in HEK293T (293T-DCAF7 cells) (human) (UniProt P61962).
T1 sequence: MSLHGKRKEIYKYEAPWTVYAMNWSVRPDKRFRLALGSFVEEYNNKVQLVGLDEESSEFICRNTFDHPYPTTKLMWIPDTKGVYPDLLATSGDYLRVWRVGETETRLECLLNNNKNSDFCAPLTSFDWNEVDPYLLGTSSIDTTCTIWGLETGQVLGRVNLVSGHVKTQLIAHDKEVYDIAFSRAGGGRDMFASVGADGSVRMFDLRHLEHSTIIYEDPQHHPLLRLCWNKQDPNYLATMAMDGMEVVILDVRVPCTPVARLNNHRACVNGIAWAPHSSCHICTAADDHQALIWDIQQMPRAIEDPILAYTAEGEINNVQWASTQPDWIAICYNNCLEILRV
Nature of the assay: co-IP.

In assay [2] the target is T2, DCAF7 as transfected for Fig. 8A and B (human) (UniProt P61962).
T2 sequence: T1 sequence
Nature of the assay: co-IP; HEK293T transfected with the indicated plasmids for 48 h, lysed and immunoprecipitated with anti-Flag antibody; immunoblotting (Fig. 8A and B).

“PB1 made during H1N1 infection (from UniProt P03431 1-757)”: the binding entry in assay [1] was “binds”. For HA-CUL4B (from UniProt Q13620 1-913), the binding result in assay [2] is reported as “binds”. Turning to CUL4A (from UniProt Q13619 1-759), in assay [2], the binding result is “binds”. Same read-out and setting: the entry for “Myc-DDB1 (DNA damage-binding protein-1) (from UniProt Q16531 1-1140)” is “binds”.
